Measured values published in patent publication US20260138985A1, “Azepino-Indoles for the Treatment of Neurological and Psychiatric Disorders” (Terran Biosciences Inc., priority 2021, published 2026).
At least one structure is not confirmed: it was looked up by name or label, or the drawing left a doubt.

Tested on: C57BL/6J mice
Experiment: Head-twitch response in mice
Assay type: in vivo, mouse
Settings: male C57BL/6J mice, 2 mg/kg ip, 40 min post-dose

CN(C)CCc1c[nH]c2cccc(OP(=O)(O)O)c12 [psilocybin, Psilocybin]
head-twitch response: significant increases in head-twitch
